Some of these results come from one statement about several compounds together.
Key:
Format in all cases: in vivo
[1] = test system: Diamond Back Moth (Plutella xylostella); assay: B.1 Diamond back moth leaf-dip test on cabbage leaves; settings: at 300 ppm; 3rd instar larvae; recorded 72 hours after treatment
Method: B.1 Diamond Back Moth (Plutella xylostella)
The active compound was dissolved at the desired concentration in a mixture of 1:1 (vol:vol) distilled water:aceteone. Surfactant (Kinetic HV) was added at a rate of 0.01% (vol/vol).The test solution was prepared at the day of use.
Leaves of cabbage were dipped in test solution and air-dried. Treated leaves were placed in petri dishes lined with moist filter paper and inoculated with ten 3rd instar larvae. Mortality was recorded 72 hours after treatment. Feeding damages were also recorded using a scale of 0-100%.

[2] = test system: Orchid Thrips (Dichromothrips Corbetti); assay: B.7 Orchid thrips floral-immersion test; settings: at 300 ppm; adult thrips; recorded 72 hours after treatment
Method: B.7 Orchid Thrips (Dichromothrips Corbetti) Dichromothrips corbettiadults used for bioassay were obtained from a colony maintained continuously under laboratory conditions. For testing purposes, the test compound is diluted in a 1:1 mixture of acetone:water (vol:vol), plus Kinetic HV at a rate of 0.01% v/v.
Thrips potency of each compound was evaluated by using a floral-immersion technique. All petals of individual, intact orchid flowers were dipped into treatment solution and allowed to dry in Petri dishes. Treated petals were placed into individual re-sealable plastic along with about 20 adult thrips. All test arenas were held under continuous light and a temperature of about 28° C. for duration of the assay. After 3 days, the numbers of live thrips were counted on each petal. The percent mortality was recorded 72 hours after treatment.

[3] = test system: Mediterranean Fruitfly (Ceratitis capitata); assay: B.6 Mediterranean fruitfly test, insect diet with eggs in microtiter plates; settings: at 2500 ppm; egg and larval mortality after 5 days
Method: B.6 Mediterranean Fruitfly (Ceratitis capitata)
For evaluating control of Mediterranean fruitfly (Ceratitis capitata) the test unit consisted of microtiter plates containing an insect diet and 50-80 C. capitata eggs. The compounds were formulated using a solution containing 75% v/v water and 25% v/v DMSO. Different concentrations of formulated compounds were sprayed onto the insect diet at 5 μl, using a custom built micro atomizer, at two replications.
After application, microtiter plates were incubated at about 28±1° C. and about 80+5% relative humidity for 5 days. Egg and larval mortality was then visually assessed.

[4] = test system: Green Peach Aphid (Myzus persicae); assay: B.2 Green peach aphid systemic test, artificial diet under membrane in microtiter plates; settings: at 2500 ppm; adult aphids; assessed after 3 days
Description: B.2 Green Peach Aphid (Myzus persicae)
For evaluating control of green peach aphid (Myzus persicae) through systemic means the test unit consisted of 96-well-microtiter plates containing liquid artificial diet under an artificial membrane.
The compounds were formulated using a solution containing 75% v/v water and 25% v/v DMSO. Different concentrations of formulated compounds were pipetted into the aphid diet, using a custom built pipetter, at two replications.
After application, 5-8 adult aphids were placed on the artificial membrane inside the microtiter plate wells. The aphids were then allowed to suck on the treated aphid diet and incubated at about 23±1° C. and about 50±5% relative humidity for 3 days. Aphid mortality and fecundity was then visually assessed.

[5] = test system: Tobacco Budworm (Heliothis virescens); assay: B.4 Tobacco budworm test, insect diet with eggs in microtiter plates; settings: at 2500 ppm; egg and larval mortality after 5 days
Method: B.4 Tobacco Budworm (Heliothis virescens)
For evaluating control of tobacco budworm (Heliothis virescens) the test unit consisted of 96-well-microtiter plates containing an insect diet and 15-25 H. virescens eggs.
The compounds were formulated using a solution containing 75% v/v water and 25% v/v DMSO. Different concentrations of formulated compounds were sprayed onto the insect diet at 10 μl, using a custom built micro atomizer, at two replications.
After application, microtiter plates were incubated at about 28±10C and about 80±5% relative humidity for 5 days. Egg and larval mortality was then visually assessed.

[6] = test system: Boll Weevil (Anthonomus grandis); assay: B.5 Boll weevil test, insect diet with eggs in microtiter plates; settings: at 2500 ppm; egg and larval mortality after 5 days
Method: B.5 Boll Weevil (Anthonomus grandis)
For evaluating control of boll weevil (Anthonomus grandis) the test unit consisted of 96-well-microtiter plates containing an insect diet and 5-10 A. grandis eggs.
The compounds were formulated using a solution containing 75% v/v water and 25% v/v DMSO. Different concentrations of formulated compounds were sprayed onto the insect diet at 5 μl, using a custom built micro atomizer, at two replications.
After application, microtiter plates were incubated at about 25±1° C. and about 75±5% relative humidity for 5 days. Egg and larval mortality was then visually assessed.

[7] = test system: Rice Green Leafhopper (Nephotettix virescens); assay: B.8 Rice green leafhopper test on sprayed rice seedlings; settings: at 300 ppm; adults; recorded after 72 hours
Method: B.8 Rice Green Leafhopper (Nephotettix virescens)
Rice seedlings were cleaned and washed 24 hours before spraying. The active compounds were formulated in 1:1 acetone:water (vol:vol), and 0.01% vol/vol surfactant (Kinetic HV) was added. Potted rice seedlings were sprayed with 5-6 ml test solution, air dried, covered with Mylar cages cages and inoculated with 10 adults. Treated rice plants were kept at about 28-29° C. and relative humidity of about 50-60%. Percent mortality was recorded after 72 hours.

[8] = test system: Green Soldier Stink Bug (Nezara viridula); assay: B.11 Green soldier stink bug test on soybean pods in Petri dishes; settings: at 300 ppm; late 3rd instar; recorded after 5 days
Method: B.11 Green Soldier Stink Bug (Nezara viridula)
The active compound was dissolved at the desired concentration in a mixture of 1:1 (vol:vol) distilled water:acetone. Surfactant (Kinetic HV) was added at a rate of 0.01% (vol/vol).The test solution was prepared at the day of use.
Soybean pods were placed in glass Petri dishes lined with moist filter paper and inoculated with ten late 3rd instar N. viridula. Using a hand atomizer, approximately 2 ml solution is sprayed into each Petri dish. Assay arenas were kept at about 25° C. Percent mortality was recorded after 5 days.

[9] = test system: Vetch Aphid (Megoura viciae); assay: B.3 Vetch aphid test on broad bean leaf disks; settings: at 2500 ppm; adult aphids; assessed after 5 days
Method: B.3 Vetch Aphid (Megoura viciae)
For evaluating control of vetch aphid (Megoura viciae) through contact or systemic means the test unit consisted of 24-well-microtiter plates containing broad bean leaf disks.
The compounds were formulated using a solution containing 75% v/v water and 25% v/v DMSO. Different concentrations of formulated compounds were sprayed onto the leaf disks at 2.5 μl, using a custom built micro atomizer, at two replications.
After application, the leaf disks were air-dried and 5-8 adult aphids placed on the leaf disks inside the microtiter plate wells. The aphids were then allowed to suck on the treated leaf disks and incubated at about 23±10C and about 50±5% relative humidity for 5 days. Aphid mortality and fecundity was then visually assessed.

[10] = test system: Southern Armyworm (Spodoptera eridania); assay: B.10 Southern armyworm test on sprayed lima bean plants; settings: at 10 ppm; larvae; assessed 4 days after treatment
Method: B.10 Southern Armyworm (Spodoptera eridania)
The active compounds were formulated in cyclohexanone as a 10,000 ppm solution supplied in tubes. The tubes were inserted into an automated electrostatic sprayer equipped with an atomizing nozzle and they served as stock solutions for which lower dilutions were made in 50% acetone:50% water (v/v). A nonionic surfactant (Kinetic®) was included in the solution at a volume of 0.01% (v/v).
Lima bean plants (variety Sieva) were grown 2 plants to a pot and selected for treatment at the 1st true leaf stage. Test solutions were sprayed onto the foliage by an automated electrostatic plant sprayer equipped with an atomizing spray nozzle. The plants were dried in the sprayer fume hood and then removed from the sprayer. Each pot was placed into perforated plastic bags with a zip closure. About 10 to 11 armyworm larvae were placed into the bag and the bags zipped closed. Test plants were maintained in a growth room at about 250C and about 20-40% relative humidity for 4 days, avoiding direct exposure to fluorescent light (24 hour photoperiod) to prevent trapping of heat inside the bags. Mortality and reduced feeding were assessed 4 days after treatment, compared to untreated control plants.

Measured: mortality in comparison with untreated controls

O=C(NCc1ccccn1)c1ccc(C2=NOC(c3cc(Cl)c(F)c(Cl)c3)(C(F)(F)F)C2)c2c1OCC2 (centres unmarked) [Compound I-4]
not listed: [10]
at least 75%: all other assays above

CCN1OC[C@H](NC(=O)c2ccc(C3=NOC(c4cc(Cl)c(F)c(Cl)c4)(C(F)(F)F)C3)c3c2SCC3)C1=O (some centres unmarked) [Compound I-13]
not listed: [7] | [10]
at least 75%: all other assays above

O=C(NC1CS(=O)(=O)C1)c1ccc(C2=NOC(c3cc(Cl)c(F)c(Cl)c3)(C(F)(F)F)C2)c2c1OCCC2 (centres unmarked) [Compound I-33]
at least 75%: all assays above

O=C(NCC1CC1)c1ccc(C2=NOC(c3cc(Cl)c(F)c(Cl)c3)(C(F)(F)F)C2)c2c1COC2 (centres unmarked) [Compound I-38]
at least 75%: [1] | [2] | [7] | [10]

O=C(NC1CC1)c1ccc(C2=NOC(c3cc(Cl)c(F)c(Cl)c3)(C(F)(F)F)C2)c2c1COC2 (centres unmarked) [Compound I-39]
at least 75%: [1] | [2] | [7] | [10]

O=C(NCc1ncccn1)c1ccc(C2=NOC(c3cc(Cl)c(F)c(Cl)c3)(C(F)(F)F)C2)c2c1CS(=O)(=O)C2 (centres unmarked) [Compound I-42]
not listed: [7] | [8] | [9]
at least 75%: all other assays above

O=C(NCc1ccccn1)c1ccc(C2=NOC(c3cc(Cl)c(F)c(Cl)c3)(C(F)(F)F)C2)c2c1CS(=O)(=O)C2 (centres unmarked) [Compound I-43]
not listed: [1] | [7] | [8]
at least 75%: all other assays above

O=C(NCC1CC1)c1ccc(C2=NOC(c3cc(Cl)c(F)c(Cl)c3)(C(F)(F)F)C2)c2c1CS(=O)(=O)C2 (centres unmarked) [Compound I-47]
not listed: [7] | [8]
at least 75%: all other assays above

O=C(NC1CC1)c1ccc(C2=NOC(c3cc(Cl)c(F)c(Cl)c3)(C(F)(F)F)C2)c2c1CS(=O)(=O)C2 (centres unmarked) [Compound I-48]
not listed: [7] | [8]
at least 75%: all other assays above
